# Experimental data taken from paper PMC8570464.
# By UniProt entry, the sequences of proteins in these tests, tags left out. Where a name states a change or a piece, a line headed by the entry shows the natural chain unless it says otherwise. Chains listed by the source or under a name are the forms on record and can include a tag or linker.
# UniProt Q8N122: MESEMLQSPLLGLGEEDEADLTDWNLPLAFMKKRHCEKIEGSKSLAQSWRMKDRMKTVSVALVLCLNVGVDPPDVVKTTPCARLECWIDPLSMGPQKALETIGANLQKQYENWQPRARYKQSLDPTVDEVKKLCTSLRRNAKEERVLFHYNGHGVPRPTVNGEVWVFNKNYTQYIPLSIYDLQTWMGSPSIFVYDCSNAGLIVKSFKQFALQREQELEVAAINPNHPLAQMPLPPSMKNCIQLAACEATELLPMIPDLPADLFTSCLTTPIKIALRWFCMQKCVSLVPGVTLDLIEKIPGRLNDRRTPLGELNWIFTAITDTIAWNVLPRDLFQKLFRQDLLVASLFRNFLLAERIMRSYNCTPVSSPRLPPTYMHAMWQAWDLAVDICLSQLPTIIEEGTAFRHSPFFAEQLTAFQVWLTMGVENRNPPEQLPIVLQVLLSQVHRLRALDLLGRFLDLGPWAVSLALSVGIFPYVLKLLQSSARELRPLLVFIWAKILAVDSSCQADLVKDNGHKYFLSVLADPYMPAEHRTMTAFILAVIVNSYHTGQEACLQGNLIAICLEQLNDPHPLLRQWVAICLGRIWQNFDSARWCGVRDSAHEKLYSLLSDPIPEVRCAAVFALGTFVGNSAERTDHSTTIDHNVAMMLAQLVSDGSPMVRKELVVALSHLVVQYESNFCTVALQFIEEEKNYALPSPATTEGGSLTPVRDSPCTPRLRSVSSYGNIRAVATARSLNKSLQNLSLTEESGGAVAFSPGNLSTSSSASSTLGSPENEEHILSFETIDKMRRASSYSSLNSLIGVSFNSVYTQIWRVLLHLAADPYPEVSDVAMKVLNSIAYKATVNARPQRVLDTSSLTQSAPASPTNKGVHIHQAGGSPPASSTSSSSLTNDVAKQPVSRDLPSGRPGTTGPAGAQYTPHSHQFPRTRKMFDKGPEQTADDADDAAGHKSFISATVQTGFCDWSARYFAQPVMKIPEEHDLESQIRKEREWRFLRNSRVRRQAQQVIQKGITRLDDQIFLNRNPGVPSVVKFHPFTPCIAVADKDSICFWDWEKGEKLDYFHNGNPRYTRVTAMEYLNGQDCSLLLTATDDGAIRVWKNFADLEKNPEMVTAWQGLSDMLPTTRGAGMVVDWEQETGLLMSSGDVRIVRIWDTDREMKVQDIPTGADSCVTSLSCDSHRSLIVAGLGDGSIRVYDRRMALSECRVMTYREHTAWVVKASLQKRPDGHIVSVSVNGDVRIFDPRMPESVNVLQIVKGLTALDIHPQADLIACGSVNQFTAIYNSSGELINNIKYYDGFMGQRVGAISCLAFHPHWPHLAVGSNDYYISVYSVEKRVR
# AKAP13 (Q12802-2, form named): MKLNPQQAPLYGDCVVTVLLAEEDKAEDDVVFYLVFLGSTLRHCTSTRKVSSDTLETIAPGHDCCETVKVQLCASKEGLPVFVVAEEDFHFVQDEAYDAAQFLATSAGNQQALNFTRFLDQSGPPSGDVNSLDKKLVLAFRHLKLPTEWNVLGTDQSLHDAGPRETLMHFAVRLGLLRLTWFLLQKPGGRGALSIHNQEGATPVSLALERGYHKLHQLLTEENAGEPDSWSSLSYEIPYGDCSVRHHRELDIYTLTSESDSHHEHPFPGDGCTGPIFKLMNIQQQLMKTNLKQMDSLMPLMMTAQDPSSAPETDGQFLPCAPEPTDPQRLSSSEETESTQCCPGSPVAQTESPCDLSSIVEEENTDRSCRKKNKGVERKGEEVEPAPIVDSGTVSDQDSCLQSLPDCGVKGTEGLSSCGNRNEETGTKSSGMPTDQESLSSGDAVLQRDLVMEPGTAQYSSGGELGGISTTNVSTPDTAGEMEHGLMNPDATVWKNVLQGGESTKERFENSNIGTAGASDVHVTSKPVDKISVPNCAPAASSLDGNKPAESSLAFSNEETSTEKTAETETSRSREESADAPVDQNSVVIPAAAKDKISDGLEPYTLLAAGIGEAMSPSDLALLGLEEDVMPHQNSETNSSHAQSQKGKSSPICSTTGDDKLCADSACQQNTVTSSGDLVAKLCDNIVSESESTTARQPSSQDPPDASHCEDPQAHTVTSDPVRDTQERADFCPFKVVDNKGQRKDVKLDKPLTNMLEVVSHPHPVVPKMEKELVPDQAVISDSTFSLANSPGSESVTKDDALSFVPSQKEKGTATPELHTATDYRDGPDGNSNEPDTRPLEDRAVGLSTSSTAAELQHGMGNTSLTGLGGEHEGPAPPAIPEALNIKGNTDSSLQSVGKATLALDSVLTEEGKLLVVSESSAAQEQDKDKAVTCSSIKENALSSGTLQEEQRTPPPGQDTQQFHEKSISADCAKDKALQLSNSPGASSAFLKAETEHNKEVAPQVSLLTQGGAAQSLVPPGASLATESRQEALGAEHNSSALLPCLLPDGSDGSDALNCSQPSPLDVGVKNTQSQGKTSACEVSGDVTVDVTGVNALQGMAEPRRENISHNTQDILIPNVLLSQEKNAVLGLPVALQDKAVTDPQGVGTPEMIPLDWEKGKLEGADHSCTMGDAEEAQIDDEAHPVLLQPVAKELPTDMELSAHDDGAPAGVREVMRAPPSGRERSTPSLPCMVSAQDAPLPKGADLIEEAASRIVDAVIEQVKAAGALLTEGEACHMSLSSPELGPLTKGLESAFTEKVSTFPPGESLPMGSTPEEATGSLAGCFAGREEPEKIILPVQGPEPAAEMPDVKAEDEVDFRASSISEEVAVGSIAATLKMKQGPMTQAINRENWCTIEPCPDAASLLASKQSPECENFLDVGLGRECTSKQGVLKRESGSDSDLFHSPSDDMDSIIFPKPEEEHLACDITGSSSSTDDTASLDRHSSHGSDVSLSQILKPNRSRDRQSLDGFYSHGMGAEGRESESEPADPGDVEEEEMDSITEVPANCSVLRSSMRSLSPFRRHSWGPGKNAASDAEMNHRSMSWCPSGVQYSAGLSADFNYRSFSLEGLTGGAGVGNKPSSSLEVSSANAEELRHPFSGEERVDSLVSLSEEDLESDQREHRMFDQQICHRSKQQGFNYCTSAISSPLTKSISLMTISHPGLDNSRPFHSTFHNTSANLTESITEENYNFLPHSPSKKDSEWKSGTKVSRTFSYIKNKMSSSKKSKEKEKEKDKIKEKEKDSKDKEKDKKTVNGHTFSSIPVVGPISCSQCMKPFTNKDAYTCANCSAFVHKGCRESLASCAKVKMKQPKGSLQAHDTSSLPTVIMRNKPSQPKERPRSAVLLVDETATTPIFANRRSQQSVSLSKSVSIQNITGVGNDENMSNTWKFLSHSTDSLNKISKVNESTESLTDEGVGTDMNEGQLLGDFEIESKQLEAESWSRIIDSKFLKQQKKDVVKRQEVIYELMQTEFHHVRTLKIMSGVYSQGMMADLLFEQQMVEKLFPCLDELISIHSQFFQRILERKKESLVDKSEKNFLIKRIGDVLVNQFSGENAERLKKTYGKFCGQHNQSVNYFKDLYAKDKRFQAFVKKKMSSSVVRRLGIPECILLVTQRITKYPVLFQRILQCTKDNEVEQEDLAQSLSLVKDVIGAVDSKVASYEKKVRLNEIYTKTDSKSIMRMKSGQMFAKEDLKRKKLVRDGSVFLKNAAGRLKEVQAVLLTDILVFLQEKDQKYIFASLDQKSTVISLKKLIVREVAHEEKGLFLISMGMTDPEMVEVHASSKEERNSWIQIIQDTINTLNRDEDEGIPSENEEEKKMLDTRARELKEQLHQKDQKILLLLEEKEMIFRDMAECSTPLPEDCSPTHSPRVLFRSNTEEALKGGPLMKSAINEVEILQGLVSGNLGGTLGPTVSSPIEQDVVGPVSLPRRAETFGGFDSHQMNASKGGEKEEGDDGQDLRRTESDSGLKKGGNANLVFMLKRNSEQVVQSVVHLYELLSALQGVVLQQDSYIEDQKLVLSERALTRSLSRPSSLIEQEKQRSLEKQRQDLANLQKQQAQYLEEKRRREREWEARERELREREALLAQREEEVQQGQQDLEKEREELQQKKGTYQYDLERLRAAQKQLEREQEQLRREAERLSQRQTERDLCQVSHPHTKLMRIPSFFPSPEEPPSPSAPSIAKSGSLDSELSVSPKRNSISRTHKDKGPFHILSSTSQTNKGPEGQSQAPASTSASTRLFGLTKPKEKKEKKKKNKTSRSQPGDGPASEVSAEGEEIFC
# UniProt P13861: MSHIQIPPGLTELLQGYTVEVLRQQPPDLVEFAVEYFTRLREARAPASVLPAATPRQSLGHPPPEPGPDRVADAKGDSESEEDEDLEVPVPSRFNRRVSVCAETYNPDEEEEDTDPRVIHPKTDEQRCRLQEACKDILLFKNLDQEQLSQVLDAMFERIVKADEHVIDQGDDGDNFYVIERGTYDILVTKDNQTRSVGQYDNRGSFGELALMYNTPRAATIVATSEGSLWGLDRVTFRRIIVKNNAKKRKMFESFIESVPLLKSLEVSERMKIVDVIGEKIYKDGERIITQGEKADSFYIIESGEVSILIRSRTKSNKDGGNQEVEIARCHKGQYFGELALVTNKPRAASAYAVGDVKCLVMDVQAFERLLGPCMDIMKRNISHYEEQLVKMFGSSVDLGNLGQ
# These are yes or no findings as the source states them, for the method shown. Binding seen in cells or lysates may run through a third protein. A yes stands for co-enrichment or nearness to the bait. Other partners may have been found.
# Target: Flag-tagged Raptor (UniProt Q8N122)
# Assay: affinity purification with mass spectrometry; mTORC1 complex immunopurified via Flag-tagged Raptor; anti-Flag immunoprecipitants analysed by mass spectrometry
row,Substance,binding
1,AKAP13 (from UniProt Q12802-2 1-2817),binds
2,PKA regulatory subunit IIα (from UniProt P13861 1-404),binds
